Values from PubChem BioAssay AID1159584 (Peter MacCallum Cancer Centre, 2016).
The deposit covers about 18,000 reagents; this is a part drawn at random. Further read-outs or replicates are left out here. No sequences are given here. Not given: the amount of reagent, the time to read-out.

Aim: 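Knock-downs that harm CDH1-null cells more than parental MCF10A cells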 (primary screen)
Cell system: human MCF10A breast epithelial cells, parental and CDH1-null
Knock-down reagent: siRNA against human genes
Detection: 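Cell viability by CellTiter-Glo ATP luminescence, each line scaled to the mean of mock wells across plates, then CDH1-null over parental ratio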
Scale: CDH1-null / parental viability ratio: higher = CDH1-null cells survive relatively better than parental; CDH1-null viability vs mock: higher = more viable CDH1-null cells
Units: CDH1-null viability vs mock in fraction of mock

MAP3K7CL: CDH1-null / parental viability ratio = 0.7; CDH1-null viability vs mock = 0.53
BLM: CDH1-null / parental viability ratio = 1.04; CDH1-null viability vs mock = 0.96
RPS4Y1: CDH1-null / parental viability ratio = 1.55; CDH1-null viability vs mock = 0.68
OAT: CDH1-null / parental viability ratio = 0.99; CDH1-null viability vs mock = 0.79
MIDEAS: CDH1-null / parental viability ratio = 1.01; CDH1-null viability vs mock = 0.86
ETF1: CDH1-null / parental viability ratio = 1; CDH1-null viability vs mock = 0.66
BCAS4: CDH1-null / parental viability ratio = 0.76; CDH1-null viability vs mock = 0.52
KCNA6: CDH1-null / parental viability ratio = 1.5; CDH1-null viability vs mock = 0.78
IKZF1: CDH1-null / parental viability ratio = 1.1; CDH1-null viability vs mock = 1.01
PHYKPL: CDH1-null / parental viability ratio = 0.9; CDH1-null viability vs mock = 0.74
MMGT1: CDH1-null / parental viability ratio = 0.9; CDH1-null viability vs mock = 0.72
HACL1: CDH1-null / parental viability ratio = 0.79; CDH1-null viability vs mock = 0.78
SULT6B1: CDH1-null / parental viability ratio = 1.05; CDH1-null viability vs mock = 0.91
POTEG: CDH1-null / parental viability ratio = 0.89; CDH1-null viability vs mock = 0.72
AKAP9: CDH1-null / parental viability ratio = 1.02; CDH1-null viability vs mock = 0.94
PCSK1N: CDH1-null / parental viability ratio = 1; CDH1-null viability vs mock = 0.58
DIAPH1: CDH1-null / parental viability ratio = 0.89; CDH1-null viability vs mock = 0.8
ACAD11: CDH1-null / parental viability ratio = 1.17; CDH1-null viability vs mock = 0.94
NAPA: CDH1-null / parental viability ratio = 0.6; CDH1-null viability vs mock = 0.3
YPEL4: CDH1-null / parental viability ratio = 1.34; CDH1-null viability vs mock = 0.71
TSPAN12: CDH1-null / parental viability ratio = 1.02; CDH1-null viability vs mock = 1.09
TGIF1: CDH1-null / parental viability ratio = 1.17; CDH1-null viability vs mock = 0.98
WNT3: CDH1-null / parental viability ratio = 0.99; CDH1-null viability vs mock = 0.82
RANBP3: CDH1-null / parental viability ratio = 0.81; CDH1-null viability vs mock = 0.88
S100B: CDH1-null / parental viability ratio = 1; CDH1-null viability vs mock = 0.84
ASTL: CDH1-null / parental viability ratio = 0.96; CDH1-null viability vs mock = 0.88
EPPK1: CDH1-null / parental viability ratio = 1; CDH1-null viability vs mock = 0.94
ASPH: CDH1-null / parental viability ratio = 0.9; CDH1-null viability vs mock = 0.54
SYNRG: CDH1-null / parental viability ratio = 1.1; CDH1-null viability vs mock = 0.68
HSPA13: CDH1-null / parental viability ratio = 0.86; CDH1-null viability vs mock = 0.48
DYNLL1: CDH1-null / parental viability ratio = 0.93; CDH1-null viability vs mock = 0.8
PLEKHG3: CDH1-null / parental viability ratio = 0.77; CDH1-null viability vs mock = 0.3
RGN: CDH1-null / parental viability ratio = 0.78; CDH1-null viability vs mock = 0.39
SNAI3: CDH1-null / parental viability ratio = 1.84; CDH1-null viability vs mock = 0.9
SACK1E: CDH1-null / parental viability ratio = 0.95; CDH1-null viability vs mock = 0.81
